# Only a part is listed here, and it is no random draw. At the low end of the ranking the order means little.
# Amino acid sequences for entries named in this document (tags omitted). A change or cut given only in a name is not applied to a line headed by its entry.
# UniProt P41212: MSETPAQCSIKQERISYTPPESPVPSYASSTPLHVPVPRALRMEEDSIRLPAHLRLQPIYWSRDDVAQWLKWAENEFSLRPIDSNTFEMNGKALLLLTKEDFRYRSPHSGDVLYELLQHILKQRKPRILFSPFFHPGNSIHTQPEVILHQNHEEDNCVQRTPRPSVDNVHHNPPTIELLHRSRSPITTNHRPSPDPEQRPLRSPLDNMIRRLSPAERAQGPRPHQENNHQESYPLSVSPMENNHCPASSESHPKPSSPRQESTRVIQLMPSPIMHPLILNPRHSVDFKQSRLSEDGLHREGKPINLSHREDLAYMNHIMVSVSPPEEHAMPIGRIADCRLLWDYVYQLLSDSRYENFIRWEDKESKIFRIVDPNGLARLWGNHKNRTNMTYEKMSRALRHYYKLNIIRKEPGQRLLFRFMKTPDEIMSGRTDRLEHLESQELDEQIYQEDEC
# Molecular target: ETV6 (UniProt P41212)
# Assay: DAPPL (digital affinity profiling via proximity ligation, sequencing)
# Conditions: 10 mM Tris-HCl pH 7.5, 50 mM NaCl, 1 mM DTT, 4% glycerol, room temperature, 30 min; GST-TFs on glutathione beads, 16-mer random dsDNA library, 0.1% …; high values mean tight binding; double strand, one strand shown; scale: fold enrichment (6-mer frequency, TF over GST control)
row,Sequence,binding signal
1,ATTGGG,1.16
2,GAAGAT,0.943
3,GTAGCT,1.06
4,CATACA,1.01
5,TTCGAT,1.14
6,TCCCAG,0.996
7,GCGTTG,0.896
8,TCTTCG,1.36
9,CATGGG,1.01
10,TGCGGT,1.03
11,GTTGCC,0.968
12,AAAGTC,0.883
13,TAAGCC,1.03
14,GAAACA,1.45
15,TCTTAT,1.3
16,TATGAT,1.17
17,TGTAAC,1.2
18,TCTAGA,0.971
19,ACTCGA,1.27

# An excerpt of these results, with bars between the fields.
row | Sequence | binding signal
12 | AAAGTC | 0.883
16 | TATGAT | 1.17

# Source: publication PMC7862700
